In publication PMC8009878 one finds binding data, which are given here for 3 substances.

Sequences of proteins named here, by UniProt entry; tags and fusion partners are left off. Residues count along the entry.
UniProt P30101, residues 25-505: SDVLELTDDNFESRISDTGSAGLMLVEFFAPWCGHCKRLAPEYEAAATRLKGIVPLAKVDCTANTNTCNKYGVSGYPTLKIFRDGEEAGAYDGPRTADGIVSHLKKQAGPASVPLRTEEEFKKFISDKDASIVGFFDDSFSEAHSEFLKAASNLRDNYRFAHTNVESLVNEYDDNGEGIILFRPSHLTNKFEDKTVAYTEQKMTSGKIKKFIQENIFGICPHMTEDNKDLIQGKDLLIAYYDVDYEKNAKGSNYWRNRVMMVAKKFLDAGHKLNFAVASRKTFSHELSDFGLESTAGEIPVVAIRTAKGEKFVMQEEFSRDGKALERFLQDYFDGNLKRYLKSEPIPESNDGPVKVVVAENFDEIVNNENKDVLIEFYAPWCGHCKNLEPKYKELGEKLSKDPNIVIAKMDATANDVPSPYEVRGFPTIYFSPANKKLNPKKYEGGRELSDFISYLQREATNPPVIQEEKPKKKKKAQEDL
UniProt P53350: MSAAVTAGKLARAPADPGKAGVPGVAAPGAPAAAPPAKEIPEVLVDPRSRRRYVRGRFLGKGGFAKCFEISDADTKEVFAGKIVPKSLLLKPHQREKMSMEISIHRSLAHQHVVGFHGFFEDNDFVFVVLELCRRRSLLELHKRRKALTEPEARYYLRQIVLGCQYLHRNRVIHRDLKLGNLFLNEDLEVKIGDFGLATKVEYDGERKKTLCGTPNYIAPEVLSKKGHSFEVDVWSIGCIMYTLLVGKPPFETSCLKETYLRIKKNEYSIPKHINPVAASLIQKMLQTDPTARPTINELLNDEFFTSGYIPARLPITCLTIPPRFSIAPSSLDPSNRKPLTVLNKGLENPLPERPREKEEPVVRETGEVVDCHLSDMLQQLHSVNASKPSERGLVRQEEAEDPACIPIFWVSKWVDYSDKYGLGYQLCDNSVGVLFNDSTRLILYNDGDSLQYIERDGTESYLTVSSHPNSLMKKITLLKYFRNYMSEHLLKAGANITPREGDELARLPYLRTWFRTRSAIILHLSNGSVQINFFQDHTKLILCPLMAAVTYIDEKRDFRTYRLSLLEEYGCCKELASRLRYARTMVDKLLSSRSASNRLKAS
UniProt P01106: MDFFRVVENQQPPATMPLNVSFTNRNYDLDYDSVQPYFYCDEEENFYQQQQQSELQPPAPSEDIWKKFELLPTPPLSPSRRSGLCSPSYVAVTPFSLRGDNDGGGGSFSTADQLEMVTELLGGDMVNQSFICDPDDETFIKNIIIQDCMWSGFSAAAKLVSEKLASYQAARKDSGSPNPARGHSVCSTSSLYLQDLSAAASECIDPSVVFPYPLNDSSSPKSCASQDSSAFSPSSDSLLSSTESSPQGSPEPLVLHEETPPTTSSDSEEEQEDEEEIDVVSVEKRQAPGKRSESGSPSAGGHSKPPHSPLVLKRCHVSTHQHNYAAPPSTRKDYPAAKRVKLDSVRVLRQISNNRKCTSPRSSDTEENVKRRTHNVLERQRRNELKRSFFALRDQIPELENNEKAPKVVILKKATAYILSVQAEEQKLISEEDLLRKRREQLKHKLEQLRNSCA
UniProt P31749: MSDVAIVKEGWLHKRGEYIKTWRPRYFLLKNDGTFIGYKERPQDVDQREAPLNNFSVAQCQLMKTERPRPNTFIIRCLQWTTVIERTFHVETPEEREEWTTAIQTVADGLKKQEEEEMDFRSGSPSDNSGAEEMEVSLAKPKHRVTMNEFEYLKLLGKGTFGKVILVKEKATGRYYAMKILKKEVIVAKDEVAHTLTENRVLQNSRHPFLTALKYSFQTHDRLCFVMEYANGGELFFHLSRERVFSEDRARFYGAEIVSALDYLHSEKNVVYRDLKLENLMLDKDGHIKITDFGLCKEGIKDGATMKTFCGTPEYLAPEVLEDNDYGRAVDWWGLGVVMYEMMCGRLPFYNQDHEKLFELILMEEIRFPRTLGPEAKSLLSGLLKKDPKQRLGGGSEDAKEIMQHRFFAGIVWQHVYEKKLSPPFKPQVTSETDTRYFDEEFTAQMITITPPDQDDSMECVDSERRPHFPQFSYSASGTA

For this test, the target named is ERp57-V5 (disulfide isomerase ERp57 with a C-terminal V5-tag) (UniProt P30101). The test can be described thus: co-IP; HEK293T co-transfected with ERp57-V5 and one partner plasmid, 72 h; lysis in 50 mM Tris pH 7.3, 150 mM NaCl, 1% NP-40; V5 antibody 4 h at 4 °C, magnetic beads 1 h, 4 washes; control IP: lysate without V5 antibody; western blot with anti-FLAG, anti-HA, anti-GFP or anti-c-Myc. (In general: In western blotting, separated proteins are transferred to a membrane and probed.)

These are yes or no findings as the source states them, for the method shown. Binding seen in cells or lysates may run through a third protein. Some entries that bind do so weakly or less than the wild type.

On to “EYFP-PLK1 (polo-like kinase 1) (from UniProt P53350 1-603)”, for which the binding result was “no binding”. To Flag-c-Myc (from UniProt P01106 1-454) belongs “binds”.

For HA-AKT1 (from UniProt P31749 1-480), the binding entry is “no binding”.
